Measured values: article PMC7758530
No constants are given. Whether binding was seen depends on the method and setting. In cells and extracts the contact can be indirect. Some results given as binding are weak or reduced against the parent protein; the word gives no strength.

Protein sequences, listed by entry. Tags and fused reporters are not part of them.
UniProt O35303: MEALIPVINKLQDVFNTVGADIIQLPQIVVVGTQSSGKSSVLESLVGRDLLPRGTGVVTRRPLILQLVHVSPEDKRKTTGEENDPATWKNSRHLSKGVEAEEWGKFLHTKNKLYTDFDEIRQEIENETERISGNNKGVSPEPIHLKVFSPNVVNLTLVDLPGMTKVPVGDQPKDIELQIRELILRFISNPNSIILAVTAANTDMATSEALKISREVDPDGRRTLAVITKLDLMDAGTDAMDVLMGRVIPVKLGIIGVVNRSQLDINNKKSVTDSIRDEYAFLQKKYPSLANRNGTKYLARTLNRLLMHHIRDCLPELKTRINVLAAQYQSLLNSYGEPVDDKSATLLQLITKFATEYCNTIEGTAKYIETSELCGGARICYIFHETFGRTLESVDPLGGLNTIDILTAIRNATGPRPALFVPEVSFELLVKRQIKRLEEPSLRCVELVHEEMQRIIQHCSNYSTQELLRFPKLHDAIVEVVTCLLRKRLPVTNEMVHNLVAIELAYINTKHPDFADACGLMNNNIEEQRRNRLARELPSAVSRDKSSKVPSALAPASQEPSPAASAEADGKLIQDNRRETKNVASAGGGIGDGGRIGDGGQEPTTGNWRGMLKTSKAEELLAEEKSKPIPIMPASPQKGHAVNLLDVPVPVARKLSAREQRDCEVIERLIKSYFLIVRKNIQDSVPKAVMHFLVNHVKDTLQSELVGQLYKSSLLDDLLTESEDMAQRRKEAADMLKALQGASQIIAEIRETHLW

Target: dynein-related protein 1 (rat (endogenous in H9c2)) (UniProt O35303)
Assay: co-IP; H9c2 cell lysates (control, H/R, H/R + 100 nM Vit D, Vit D); 1 ug antibody, protein A/G Sepharose beads overnight at 4 C; Western blot

binding: binds
B1: mitochondrial fission factor (protein, UniProt Q4KM98 1-218)
chain: MAEISRIQYEMEYTEGISQRMRVPEKLKVAPPNADLEQGFQDGVPNASVIMQVPERIVVTGNNEDISFSRPADLDLIQSTPFKPLALKTPPRVLTLSERPLDFLDLERPPPTPQSEEIRAVGRLKRERSMSENAVRQNGQLVRNDSMYGISSLDAAVEGASEDMSVVDAASLRRQIIKLNRRLQLLEEENKERAKREMVMYSITVAFWLLNSWLWFRR
